The assay deals with Hu antigen R (HuR) (human (endogenous in T24 and RT4)) (UniProt Q15717). The assay can be described thus: co-IP; T24 and RT4 cells lysed in IP buffer; 2 ug anti-HuR overnight at 4°C, Protein A/G Agarose, five washes in IP buffer; Western blot with anti-USP5. (In general: A western blot detects proteins with antibodies after separation by electrophoresis.)

The chains behind the UniProt entries cited, without tags or fusion partners.
UniProt Q15717: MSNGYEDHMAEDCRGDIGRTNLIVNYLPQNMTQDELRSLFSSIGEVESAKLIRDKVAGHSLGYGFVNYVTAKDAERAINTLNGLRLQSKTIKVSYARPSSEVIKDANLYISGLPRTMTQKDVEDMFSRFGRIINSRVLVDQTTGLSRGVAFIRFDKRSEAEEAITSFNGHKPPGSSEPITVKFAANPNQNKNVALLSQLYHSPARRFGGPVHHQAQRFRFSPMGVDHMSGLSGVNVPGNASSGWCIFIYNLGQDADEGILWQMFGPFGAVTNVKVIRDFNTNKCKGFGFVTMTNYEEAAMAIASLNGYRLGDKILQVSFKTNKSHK
UniProt P45974: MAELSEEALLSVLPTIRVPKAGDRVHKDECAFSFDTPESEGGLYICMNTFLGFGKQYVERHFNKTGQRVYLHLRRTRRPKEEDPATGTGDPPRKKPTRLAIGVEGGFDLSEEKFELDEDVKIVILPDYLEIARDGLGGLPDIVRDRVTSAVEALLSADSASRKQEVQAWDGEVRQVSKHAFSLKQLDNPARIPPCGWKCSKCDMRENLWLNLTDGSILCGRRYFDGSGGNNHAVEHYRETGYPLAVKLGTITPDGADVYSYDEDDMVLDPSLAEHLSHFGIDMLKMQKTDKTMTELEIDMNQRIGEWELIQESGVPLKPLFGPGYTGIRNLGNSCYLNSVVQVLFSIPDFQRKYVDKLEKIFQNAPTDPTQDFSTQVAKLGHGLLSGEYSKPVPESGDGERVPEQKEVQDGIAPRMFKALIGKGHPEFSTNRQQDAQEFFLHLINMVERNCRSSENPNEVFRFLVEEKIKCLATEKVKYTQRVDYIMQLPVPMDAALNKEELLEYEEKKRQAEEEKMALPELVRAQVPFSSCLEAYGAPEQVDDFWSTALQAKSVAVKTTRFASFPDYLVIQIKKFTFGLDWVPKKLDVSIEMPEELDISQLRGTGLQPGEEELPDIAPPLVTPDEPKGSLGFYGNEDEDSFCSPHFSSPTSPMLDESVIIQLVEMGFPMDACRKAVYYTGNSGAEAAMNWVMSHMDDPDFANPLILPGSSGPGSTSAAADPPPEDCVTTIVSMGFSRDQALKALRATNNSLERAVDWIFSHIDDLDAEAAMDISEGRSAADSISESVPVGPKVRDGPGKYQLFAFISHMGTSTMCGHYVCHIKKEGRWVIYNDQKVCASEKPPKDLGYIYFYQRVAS

Results are given in words; binding and its absence hold for the method and conditions named. Binding seen in cells or lysates may run through a third protein. Some binding calls cover weakened binding; strength is not graded here.

Binding data for one substance are collected here from paper PMC7744027.

“ubiquitin-specific processing protease 5 (USP5) (from UniProt P45974 1-858) (enzyme)”: the binding result is recorded as “binds”.
